Source: article PMC11082977
Like-named read-outs stand apart in the source and are kept apart here. These are yes or no findings as the source states them, for the method shown. Binding seen in cells or lysates may run through a third protein. Some binding calls cover weakened binding; strength is not graded here.

By UniProt entry, the sequences of proteins in these tests, tags left out. Where a name states a change or a piece, a line headed by the entry shows the natural chain unless it says otherwise. Chains listed by the source or under a name are the forms on record and can include a tag or linker. Residues count along the entry.
FLAG-tagged human IRE1α (stably transduced in HMC-1.2 IRE1α−/− cells) (O75460, residues 19-977): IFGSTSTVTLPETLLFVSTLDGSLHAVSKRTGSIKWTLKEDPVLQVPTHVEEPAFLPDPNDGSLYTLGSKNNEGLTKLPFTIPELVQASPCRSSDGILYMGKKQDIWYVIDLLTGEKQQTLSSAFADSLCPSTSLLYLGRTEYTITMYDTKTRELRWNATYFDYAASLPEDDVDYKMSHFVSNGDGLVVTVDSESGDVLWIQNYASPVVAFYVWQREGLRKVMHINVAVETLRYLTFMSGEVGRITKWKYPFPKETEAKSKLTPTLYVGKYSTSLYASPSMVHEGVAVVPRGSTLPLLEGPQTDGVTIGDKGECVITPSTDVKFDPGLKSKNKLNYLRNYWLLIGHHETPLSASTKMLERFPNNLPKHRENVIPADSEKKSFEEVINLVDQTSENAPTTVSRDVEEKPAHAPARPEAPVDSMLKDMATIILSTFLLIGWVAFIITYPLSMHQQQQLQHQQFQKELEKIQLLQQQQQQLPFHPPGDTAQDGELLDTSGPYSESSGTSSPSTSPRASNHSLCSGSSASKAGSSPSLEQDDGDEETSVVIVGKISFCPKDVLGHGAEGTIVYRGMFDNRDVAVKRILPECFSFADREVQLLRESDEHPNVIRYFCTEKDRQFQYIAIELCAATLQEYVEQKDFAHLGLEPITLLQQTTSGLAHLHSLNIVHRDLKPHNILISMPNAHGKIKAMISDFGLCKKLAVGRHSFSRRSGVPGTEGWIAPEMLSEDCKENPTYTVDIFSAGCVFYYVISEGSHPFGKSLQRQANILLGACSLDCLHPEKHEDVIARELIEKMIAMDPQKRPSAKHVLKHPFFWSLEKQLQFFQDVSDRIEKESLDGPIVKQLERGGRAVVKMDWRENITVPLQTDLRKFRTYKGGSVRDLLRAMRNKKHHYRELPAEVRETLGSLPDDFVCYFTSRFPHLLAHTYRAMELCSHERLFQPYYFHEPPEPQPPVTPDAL
Flag_HsIRE1α_delta589-903 (O75460, form named): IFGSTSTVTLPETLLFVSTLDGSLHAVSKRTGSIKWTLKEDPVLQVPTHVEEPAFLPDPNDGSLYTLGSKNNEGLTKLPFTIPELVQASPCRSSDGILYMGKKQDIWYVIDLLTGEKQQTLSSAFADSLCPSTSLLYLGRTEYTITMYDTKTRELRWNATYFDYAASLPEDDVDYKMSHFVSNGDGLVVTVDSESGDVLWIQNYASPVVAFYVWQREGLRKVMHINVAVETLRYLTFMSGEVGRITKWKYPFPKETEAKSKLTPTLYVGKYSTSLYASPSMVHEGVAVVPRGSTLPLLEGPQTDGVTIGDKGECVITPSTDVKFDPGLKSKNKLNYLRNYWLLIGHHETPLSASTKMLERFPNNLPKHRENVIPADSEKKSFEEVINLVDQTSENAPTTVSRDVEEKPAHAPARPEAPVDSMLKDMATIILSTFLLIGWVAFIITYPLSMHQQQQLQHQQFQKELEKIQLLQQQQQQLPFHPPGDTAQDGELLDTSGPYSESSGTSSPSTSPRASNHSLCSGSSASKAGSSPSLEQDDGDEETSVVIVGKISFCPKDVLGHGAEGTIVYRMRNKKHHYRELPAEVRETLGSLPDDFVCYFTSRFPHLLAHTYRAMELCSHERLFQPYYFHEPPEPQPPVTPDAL
IRE1α kinase-dead (KD) construct hIRE1α K599A (O75460, form named): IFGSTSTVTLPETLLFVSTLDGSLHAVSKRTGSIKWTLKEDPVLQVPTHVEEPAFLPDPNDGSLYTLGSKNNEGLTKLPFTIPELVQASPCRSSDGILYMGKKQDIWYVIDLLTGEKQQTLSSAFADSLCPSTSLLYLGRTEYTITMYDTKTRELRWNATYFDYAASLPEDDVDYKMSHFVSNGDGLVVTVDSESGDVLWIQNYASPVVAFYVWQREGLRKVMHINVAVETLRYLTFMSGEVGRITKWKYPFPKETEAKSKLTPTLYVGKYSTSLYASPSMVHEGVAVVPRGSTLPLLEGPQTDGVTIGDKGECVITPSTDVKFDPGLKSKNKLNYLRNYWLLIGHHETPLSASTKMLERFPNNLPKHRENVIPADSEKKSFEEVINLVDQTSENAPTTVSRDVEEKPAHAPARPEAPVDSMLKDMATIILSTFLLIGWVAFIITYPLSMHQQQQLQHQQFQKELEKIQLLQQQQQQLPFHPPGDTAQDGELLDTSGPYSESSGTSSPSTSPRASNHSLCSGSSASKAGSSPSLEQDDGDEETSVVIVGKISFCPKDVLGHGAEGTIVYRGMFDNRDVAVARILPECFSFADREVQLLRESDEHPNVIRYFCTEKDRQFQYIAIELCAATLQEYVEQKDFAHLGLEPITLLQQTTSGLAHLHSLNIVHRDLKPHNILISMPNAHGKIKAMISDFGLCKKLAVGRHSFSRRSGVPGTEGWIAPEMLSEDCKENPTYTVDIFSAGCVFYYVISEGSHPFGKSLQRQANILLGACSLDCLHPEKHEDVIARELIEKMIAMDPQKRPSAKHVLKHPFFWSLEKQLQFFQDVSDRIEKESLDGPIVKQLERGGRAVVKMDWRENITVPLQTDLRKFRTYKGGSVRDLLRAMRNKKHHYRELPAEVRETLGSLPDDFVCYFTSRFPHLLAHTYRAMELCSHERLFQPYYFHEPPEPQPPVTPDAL

Legend:
[1] = biological target: GFP-tagged human VCP (VCP(wt)-EGFP) (human) (UniProt P55072); experiment: co-IP; GFP-tagged VCP and FLAG-tagged IRE1α overexpressed in HEK293 cells; precipitated with anti-FLAG beads or with GFP-Trap, immunoblot
[2] = biological target: Flag_HsIRE1α_delta589-903 (human) (UniProt O75460); experiment: co-IP; IRE1α variants with hVCP-GFP (Figure S3E); cells and beads not told in the text shown
[3] = biological target: IRE1α kinase-dead (KD) construct hIRE1α K599A (human) (UniProt O75460); experiment: as above
[4] = biological target: FLAG-tagged human IRE1α (overexpressed in HEK293 cells) (human) (UniProt O75460); experiment: co-IP; GFP-tagged VCP and FLAG-tagged IRE1α overexpressed in HEK293 cells; precipitated with anti-FLAG beads or with GFP-Trap, immunoblot
[5] = biological target: endogenous IRE1α (parental HMC-1.2 cells) (human (endogenous in HMC-1.2)) (UniProt O75460); experiment: co-IP; endogenous proteins in parental HMC-1.2 cells (Figure S3D); which one was precipitated is not told in the text shown; called ubiquitin-dependent
[6] = biological target: FLAG-tagged human IRE1α (stably transduced in HMC-1.2 IRE1α−/− cells) (human) (UniProt O75460); experiment: co-IP; FLAG-hIRE1α stably in HMC-1.2 IRE1α−/− cells, precipitated with anti-FLAG M2 magnetic beads from RIPA lysates, endogenous partners by immunoblot; cells treated 3 h with DMSO, 5 µg/mL TM, 1 µM CB-5803, 20 µM MLN7243 or 10 nM bortezomib
[7] = biological target: FLAG-tagged human IRE1α (stably transduced in HMC-1.2 IRE1α−/− cells) (human) (UniProt O75460); experiment: as above; remark: listed apart in the source

In the case of “FLAG-tagged human IRE1α (overexpressed in HEK293 cells) (from UniProt O75460 19-977)”, the binding [1] is reported as “binds”.

In the case of “GFP-tagged human VCP (VCP(wt)-EGFP) (from UniProt P55072 1-806)”, the binding [2] is reported as “binds”, the binding [3] is reported as “binds” and the binding [4] is reported as “binds”.

In the case of “valosin-containing protein (VCP), endogenous (from UniProt P55072 1-806)”, the binding [5] is reported as “binds” and the binding [6] is reported as “binds”.

B1: metadherin (MTDH), endogenous (protein, UniProt Q86UE4 1-582)
chain: MAARSWQDELAQQAEEGSARLREMLSVGLGFLRTELGLDLGLEPKRYPGWVILVGTGALGLLLLFLLGYGWAAACAGARKKRRSPPRKREEAAAVPAAAPDDLALLKNLRSEEQKKKNRKKLSEKPKPNGRTVEVAEGEAVRTPQSVTAKQPPEIDKKNEKSKKNKKKSKSDAKAVQNSSRHDGKEVDEGAWETKISHREKRQQRKRDKVLTDSGSLDSTIPGIENTITVTTEQLTTASFPVGSKKNKGDSHLNVQVSNFKSGKGDSTLQVSSGLNENLTVNGGGWNEKSVKLSSQISAGEEKWNSVSPASAGKRKTEPSAWSQDTGDANTNGKDWGRSWSDRSIFSGIGSTAEPVSQSTTSDYQWDVSRNQPYIDDEWSGLNGLSSADPNSDWNAPAEEWGNWVDEERASLLKSQEPIPDDQKVSDDDKEKGEGALPTGKSKKKKKKKKKQGEDNSTAQDTEELEKEIREDLPVNTSKTRPKQEKAFSLKTISTSDPAEVLVKNSQPIKTLPPATSTEPSVILSKSDSDKSSSQVPPILQETDKSKSNTKQNSVPPSQTKSETSWESPKQIKKKKKARRET
For B1, the binding [7] was “binds”.
